{"source": "patent US20230210939A1", "about": "(priority 2020, published 2023)", "test": "general procedure: Fmoc solid-phase peptide synthesis; Fmoc-Rink amide MBHA resin, 0.328 mmol/g; HBTU/HOBt/DIPEA", "settings": "for step yield: purification step; for final HPLC purity: UV 214 nm; for final HPLC purity / isolated yield: scale of the general procedure 3.1 g resin; for isolated yield: total yield", "key": {"[1]": {"settings": "whole synthesis, trifluoroacetate"}}, "data": [{"substance": "picolinyl-Ala-Ser-cyclo[Cys-LRKL-Aib-KRLL-Cys]-NH2", "values": [{"measurement": "step yield", "setting": "acetate", "result": 60.9, "unit": "%"}, {"measurement": "step yield", "setting": "trifluoroacetate", "result": 28.8, "unit": "%"}, {"measurement": "final HPLC purity", "setting": "whole synthesis, acetate", "result": 97.88, "unit": "%"}, {"measurement": "final HPLC purity", "setting": "[1]", "result": 98.5, "unit": "%"}, {"measurement": "isolated yield", "setting": "whole synthesis, acetate", "result": 11.7, "unit": "%"}, {"measurement": "isolated yield", "setting": "[1]", "result": 19.2, "unit": "%"}, {"measurement": "isolated mass", "setting": "[1]", "result": 575.0, "unit": "mg"}]}]}
